Data source: PubChem BioAssay AID504786 (Drosophila RNAi Screening Center, 2011)
Purpose: 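Fly genes required for HIF-dependent transcription when hypoxia is mimicked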 (primary screen). System: Drosophila S2 cells with a stable HIF luciferase reporter. Reagents: long dsRNA against Drosophila genes, about 0.2 µg dsRNA per well of a 384-well plate. Duration: three days of knock-down, then 20 h of DFO before reading. Treatment: desferrioxamine (DFO) at 100 µM, an iron chelator that mimics hypoxia, for 20 h. Read-out: 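Firefly luciferase driven by the mouse ldh-a hypoxia-response element, measured after 20 h of 100 µM DFO; z-scores per plate, higher means more signal lost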. Direction: z-score: higher = stronger loss of HIF reporter signal.
The deposit covers about 21,000 reagents; below is a random part of those with a known target gene and a result. 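Primary screen; positive scores mean lost reporter signal, so the sign may be inverted from the usual convention.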 The numbers tell different reagents against one gene apart. Not all columns of the deposit are shown.

The opening 2 records, to show the layout:
| predicted target | reagent | z-score, replicate 1 | z-score, replicate 2 | z-score, replicate 3 |
| --- | --- | --- | --- | --- |
| CG14618 | 1 | -0.3 | 0.4 | – |
| Etfb (Electron transfer flavoprotein beta subunit) | 1 | -0.3 | -0.4 | – |

Results, repeating the preview:
| predicted target | reagent | z-score, replicate 1 | z-score, replicate 2 | z-score, replicate 3 |
| --- | --- | --- | --- | --- |
| CG14618 | 1 | -0.3 | 0.4 | – |
| Etfb (Electron transfer flavoprotein beta subunit) | 1 | -0.3 | -0.4 | – |
| Ir94e (Ionotropic receptor 94e) | 1 | -0.2 | -1 | 0.3 |
| RpL26 (Ribosomal protein L26) | 1 | 7.3 | 7.2 | – |
| Elal (Elastin-like) | 1 | -0.2 | -0.3 | – |
| spg (sponge) | 1 | -0.2 | -0.6 | – |
| spg (sponge) | 2 | -0.4 | 0.3 | – |
| CG15219 | 1 | -0.3 | -0.3 | – |
| Elba3 (Early boundary activity 3) | 1 | -0.3 | -0.2 | – |
| CG10465 | 1 | 0 | -0.5 | – |
| CG5762 | 1 | -0.2 | -0.3 | – |
| CG43795 | 1 | -0.3 | 0.1 | – |
| CG43795 | 2 | -0.3 | 0 | – |
| CG43795 | 3 | -0.3 | -0.6 | – |
| CG43795 | 4 | -0.4 | -0.5 | – |
| CG43795 | 5 | -0.3 | -0.4 | – |
| defl (deflated) | 1 | 2 | 1.3 | – |
| ste24a (prenyl protease type I) | 1 | 0.4 | -0.3 | – |
| TwdlL (TweedleL) | 1 | -0.3 | -0.3 | – |
| CecA2 (Cecropin A2) | 1 | 0.2 | 1.4 | – |
| Cyp313a1 (Cytochrome P450 313a1) | 1 | -0.3 | -0.5 | – |
| CG5321 | 1 | -0.3 | 0.4 | – |
| Usp47 (Ubiquitin specific protease 47) | 1 | -0.3 | -0.2 | – |
| CG33758 | 1 | -0.1 | -0.1 | – |
| CG30050 | 1 | -0.2 | -0.1 | – |
| hoip (hoi-polloi) | 1 | 9.1 | 6.4 | – |
| CG34430 | 1 | -0.3 | -0.6 | – |
| CG17124 | 1 | -0.3 | 0.5 | – |
| eIF2beta (eukaryotic translation initiation factor 2 subunit beta) | 1 | 1.8 | 2 | – |
| mfr (misfire) | 1 | -0.3 | -0.1 | – |
| arm (armadillo) | 1 | -0.1 | -0.8 | – |
| CG34281 | 1 | -0.3 | 0.2 | – |
| CG9692 | 1 | -0.2 | 1.4 | – |
| Droj2 (DnaJ-like-2) | 1 | 0.7 | 1.2 | – |
| Cib2 (Calcium and integrin binding family member 2) | 1 | -0.3 | -0.2 | – |
| CG13170 | 1 | 0 | 0 | – |
| CG15514 | 1 | -0.2 | 0 | – |
| Cad87A (Cadherin 87A) | 1 | -0.3 | -0.2 | – |
| CG42582 (retired record) | 1 | 0.5 | 0.7 | – |
| upd2 (unpaired 2) | 1 | -0.4 | -0.6 | – |
| CG8407 | 1 | -0.4 | 0.8 | – |
| Idh3b (Isocitrate dehydrogenase 3b) | 1 | -0.1 | -0.4 | – |
| Ugt304A1 (UDP-glycosyltransferase family 304 member A1) | 1 | -0.2 | 0.4 | – |
| Pgm2a (Phosphoglucomutase 2a) | 1 | -0.4 | -0.5 | – |
| CG8132 | 1 | -0.4 | 0 | – |
| Tsp42Ek (Tetraspanin 42Ek) | 1 | -0.3 | -0.4 | – |
| Cyp4d14 (Cytochrome P450 4d14) | 1 | -0.2 | 0.1 | – |
| CG15306 | 1 | -0.1 | -0.5 | – |
| CG15306 | 2 | -0.2 | 0.5 | -0.2 |
| CG15125 | 1 | -0.1 | -0.2 | – |
| CG43672 | 1 | -0.1 | 0 | – |
| CG43672 | 2 | -0.2 | -0.6 | – |
| CG13305 | 1 | -0.1 | 1.5 | – |
| Scox (Synthesis of cytochrome c oxidase) | 1 | 2.8 | 2.2 | – |
| ms(2)35Ci (male sterile (2) 35Ci) | 1 | -0.1 | -0.4 | – |
| Scr (Sex combs reduced) | 1 | 4.8 | 2 | – |
| CG17385 | 1 | 0.5 | -0.1 | – |
| Kdm5 (Lysine demethylase 5) | 1 | -0.4 | -0.7 | – |
| obst-B (obstructor-B) | 1 | -0.2 | -0.7 | – |
| Drak (Death-associated protein kinase related) | 1 | -0.3 | -0.7 | – |
| TfIIA-S (Transcription-factor-IIA-S) | 1 | 0.1 | -0.3 | – |
| nolo (no long nerve cord) | 1 | -0.2 | 0.1 | – |
| nolo (no long nerve cord) | 2 | -0.3 | -0.3 | – |
| nolo (no long nerve cord) | 3 | -0.3 | -0.1 | – |
| RpS12 (Ribosomal protein S12) | 1 | 8.4 | 6.4 | – |
| Peritrophin-15b | 1 | -0.4 | -0.4 | – |
| CG17575 | 1 | -0.3 | -0.5 | – |
| Ir7e (Ionotropic receptor 7e) | 1 | 0 | -0.1 | – |
| CG7420 | 1 | -0.4 | -0.5 | – |
| CG13872 | 1 | -0.3 | -0.2 | – |
| CG12486 (retired record) | 1 | -0.4 | -0.3 | – |
| CG14830 | 1 | 0.2 | 0.2 | – |
| CG14830 | 2 | 0 | -0.6 | – |
| Vha100-2 (Vacuolar H[+] ATPase 100kD subunit 2) | 1 | -0.2 | -0.5 | – |
| Tango8 (Transport and Golgi organization 8) | 1 | 0.8 | 0.7 | – |
| Su(P) (Suppressor of ref(2)P sterility) | 1 | -0.2 | -0.9 | – |
| CG17560 | 1 | 0 | -0.4 | – |
| CG31380 | 1 | -0.3 | -0.4 | – |
| peng (penguin) | 1 | 0.2 | 0.3 | – |
| Ids (Iduronate 2-sulfatase) | 1 | -0.3 | -0.4 | – |
| Recs1 | 1 | -0.3 | 0.1 | – |
| Swim (Secreted Wg-interacting molecule) | 1 | -0.2 | 0.1 | – |
| ND-13A (NADH dehydrogenase (ubiquinone) 13 kDa A subunit) | 1 | -0.1 | -0.7 | – |
| Hr51 (Hormone receptor 51) | 1 | -0.2 | -0.3 | – |
| abo (abnormal oocyte) | 1 | -0.1 | -0.3 | – |
| CG10713 | 1 | -0.5 | -0.9 | – |
| nab | 1 | -0.3 | -0.4 | – |
| nab | 2 | 0.1 | -0.7 | – |
| dpr7 (defective proboscis extension response 7) | 1 | -0.2 | -0.3 | – |
| FIG4 (FIG4 phosphoinositide 5-phosphatase) | 1 | -0.2 | 0 | – |
| Alg1 (ALG1, chitobiosyldiphosphodolichol beta-mannosyltransferase) | 1 | -0.2 | -0.7 | – |
| AGBE (1,4-Alpha-Glucan Branching Enzyme) | 1 | 0.9 | 0.8 | – |
| CG3610 | 1 | -0.5 | -0.1 | – |
| hale (hale-bopp) | 1 | -0.3 | 0.1 | – |
| BI-1 (Bax Inhibitor-1) | 1 | -0.2 | -0.2 | – |
| CG15450 | 1 | – | -0.5 | 4.2 |
| Ssrp (Structure specific recognition protein) | 1 | 1.6 | 1.2 | – |
| Cc2d2a (Coiled-coil and C2 domain containing 2A) | 1 | -0.2 | -0.4 | – |
| Cc2d2a (Coiled-coil and C2 domain containing 2A) | 2 | -0.3 | -0.3 | – |
| CG10445 | 1 | -0.2 | -0.8 | – |
| CG10011 | 1 | -0.4 | -0.7 | – |
| eve (even skipped) | 1 | -0.3 | 0.1 | – |
| CG13437 | 1 | -0.3 | -0.2 | – |
| His4r (Histone H4 replacement) | 1 | 3.8 | 3.3 | – |
| IntS12 (Integrator 12) | 1 | 0.3 | -0.3 | – |
| CG3349 | 1 | -0.2 | 2.2 | – |
